Assay results: patent US20250215014A1, “KINASE INHIBITORS, PREPARATION METHODS AND USES THEREOF” (InventisBio Co., Ltd., priority 2022, published 2025)

The chains behind the UniProt entries cited, without tags or fusion partners.
UniProt P23743, whole entry: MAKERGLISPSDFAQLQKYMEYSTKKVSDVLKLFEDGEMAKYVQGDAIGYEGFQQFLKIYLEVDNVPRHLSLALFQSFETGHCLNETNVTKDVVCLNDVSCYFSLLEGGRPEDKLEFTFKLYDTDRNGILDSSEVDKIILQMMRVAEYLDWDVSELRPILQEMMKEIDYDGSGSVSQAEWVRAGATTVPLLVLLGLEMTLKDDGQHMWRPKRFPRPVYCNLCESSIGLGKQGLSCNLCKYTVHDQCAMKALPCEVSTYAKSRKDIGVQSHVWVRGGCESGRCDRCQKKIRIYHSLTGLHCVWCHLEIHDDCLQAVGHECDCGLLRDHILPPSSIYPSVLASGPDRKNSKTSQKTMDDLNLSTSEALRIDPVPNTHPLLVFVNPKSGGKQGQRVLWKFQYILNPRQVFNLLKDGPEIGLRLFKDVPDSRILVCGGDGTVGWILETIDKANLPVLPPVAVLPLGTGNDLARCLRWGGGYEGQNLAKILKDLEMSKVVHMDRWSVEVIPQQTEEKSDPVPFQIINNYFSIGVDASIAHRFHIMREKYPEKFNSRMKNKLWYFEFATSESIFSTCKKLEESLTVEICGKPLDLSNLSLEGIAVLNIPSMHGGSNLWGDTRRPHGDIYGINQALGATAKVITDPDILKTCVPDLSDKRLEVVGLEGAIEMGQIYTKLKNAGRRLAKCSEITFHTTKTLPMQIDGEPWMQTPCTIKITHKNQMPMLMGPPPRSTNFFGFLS
UniProt Q13574, whole entry: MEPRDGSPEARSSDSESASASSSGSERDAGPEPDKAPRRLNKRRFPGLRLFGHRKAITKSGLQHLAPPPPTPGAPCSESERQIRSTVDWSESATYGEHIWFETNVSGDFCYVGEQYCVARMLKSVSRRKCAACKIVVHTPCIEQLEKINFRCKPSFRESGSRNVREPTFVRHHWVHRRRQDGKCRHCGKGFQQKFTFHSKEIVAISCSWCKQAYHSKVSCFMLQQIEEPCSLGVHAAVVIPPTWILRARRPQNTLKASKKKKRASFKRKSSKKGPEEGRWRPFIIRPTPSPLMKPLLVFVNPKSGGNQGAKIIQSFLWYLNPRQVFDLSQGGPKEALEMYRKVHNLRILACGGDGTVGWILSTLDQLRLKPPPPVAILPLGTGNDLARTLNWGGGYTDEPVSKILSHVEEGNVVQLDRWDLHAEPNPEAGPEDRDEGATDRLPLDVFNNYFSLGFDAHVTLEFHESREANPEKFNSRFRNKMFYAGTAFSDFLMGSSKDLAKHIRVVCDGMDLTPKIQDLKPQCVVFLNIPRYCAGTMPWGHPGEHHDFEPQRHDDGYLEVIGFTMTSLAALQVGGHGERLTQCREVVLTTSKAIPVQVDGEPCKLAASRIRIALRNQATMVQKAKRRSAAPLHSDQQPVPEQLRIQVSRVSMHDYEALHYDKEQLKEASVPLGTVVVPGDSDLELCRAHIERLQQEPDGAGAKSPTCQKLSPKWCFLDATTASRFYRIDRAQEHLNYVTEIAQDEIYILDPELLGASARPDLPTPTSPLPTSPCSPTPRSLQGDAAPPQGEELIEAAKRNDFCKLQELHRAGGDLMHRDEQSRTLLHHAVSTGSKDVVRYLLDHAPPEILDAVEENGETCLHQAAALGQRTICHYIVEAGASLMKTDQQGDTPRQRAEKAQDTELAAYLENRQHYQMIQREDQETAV

How the values were obtained:
DGKa = DGKa (Homo sapiens (Human), UniProt P23743); assay: DGK ADP-Glo Kinase Assay (DGKa); type: biochemical; conditions: read-out: DGKa kinase IC50, 10 nM DGKa, 15 uM ATP
DGKz = DGKz (Homo sapiens (Human), UniProt Q13574); assay: DGK ADP-Glo Kinase Assay (DGKz); type: biochemical; conditions: read-out: DGKz kinase IC50, 5 nM DGKz, 15 uM ATP

Structure (SMILES) | IC50 (DGKa) | IC50 (DGKz)
CC[C@@H]1C[C@@H](c2nc3cc(C)ccc3o2)CCN1c1nc(=O)n(C)c2cc(OC3CCOC3)c(Cl)cc12 (single isomer, unassigned) | < 100 nM | > 1000 nM
CC[C@H]1C[C@H](c2nc3cc(C)ccc3o2)CCN1c1nc(=O)n(C)c2cc(OC3CCOC3)c(Cl)cc12 (single isomer, unassigned) | < 100 nM | < 100 nM

The match of structure and compound is tentative.
